In patent US20260184750A1, “CONJUGATE COMPRISING PEPTIDE OF NOVEL SEQUENCE AND GLYCYRRHIZIN, AND PHARMACEUTICAL COMPOSITION FOR PREVENTING OR TREATING OBESITY COMPRISING SAME” (IUCF-HYU (INDUSTRY-UNIVERSITY COOPERATION FOUNDATION …, priority 2022, published 2026) one finds binding data, which are given here for 2 molecules.

Results are given in words; binding and its absence hold for the method and conditions named. Some results given as binding are weak or reduced against the parent protein; the word gives no strength.

For assay [1], the target named is T1, prohibitin (PHB) on the surface of adipocytes (mature 3T3-L1) (UniProt P67778).
T1 sequence (looked up): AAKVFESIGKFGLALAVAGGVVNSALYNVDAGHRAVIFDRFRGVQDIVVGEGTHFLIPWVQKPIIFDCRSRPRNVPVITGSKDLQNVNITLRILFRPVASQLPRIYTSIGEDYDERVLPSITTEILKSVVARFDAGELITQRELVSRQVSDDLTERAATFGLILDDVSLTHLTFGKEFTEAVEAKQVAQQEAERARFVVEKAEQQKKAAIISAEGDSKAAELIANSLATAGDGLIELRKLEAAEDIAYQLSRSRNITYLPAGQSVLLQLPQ
Put plainly: FACS of FITC-labeled peptide (1 µM) on mature 3T3-L1 adipocytes, compared with AHP.

Assay [2] deals with T1, prohibitin (PHB) on the surface of adipocytes (mature 3T3-L1). The assay can be described thus: FACS of FITC-labeled peptide (1 µM) on mature 3T3-L1 adipocytes, compared with ATS.
For assay [3] the target is unchanged. The assay can be described thus: FACS of FITC-labeled peptide (1 µM) on mature 3T3-L1 adipocytes.
Assay [4] has the same target. Put plainly: confocal fluorescence imaging of FITC-labeled peptide (1 µM) on mature 3T3-L1 adipocytes.

As to KGGRAKD (FITC-labeled (position of the label not stated)) [adipose targeting sequence (ATS), KGGRAKD, FITC-labeled], in assay [1], the binding result is recorded as “binds”.

Take KGRRAKD (FITC-labeled (position of the label not stated)) [adipose tissue homing peptide (AHP), 7mer KGRRAKD, FITC-labeled]: the binding result in assay [2], in assay [3] and in assay [4] was “binds” each time.
